{
  "sequences": {"note": "Chains of the proteins cited; added tags and fusions are not shown.", "UniProt P50406, whole entry": "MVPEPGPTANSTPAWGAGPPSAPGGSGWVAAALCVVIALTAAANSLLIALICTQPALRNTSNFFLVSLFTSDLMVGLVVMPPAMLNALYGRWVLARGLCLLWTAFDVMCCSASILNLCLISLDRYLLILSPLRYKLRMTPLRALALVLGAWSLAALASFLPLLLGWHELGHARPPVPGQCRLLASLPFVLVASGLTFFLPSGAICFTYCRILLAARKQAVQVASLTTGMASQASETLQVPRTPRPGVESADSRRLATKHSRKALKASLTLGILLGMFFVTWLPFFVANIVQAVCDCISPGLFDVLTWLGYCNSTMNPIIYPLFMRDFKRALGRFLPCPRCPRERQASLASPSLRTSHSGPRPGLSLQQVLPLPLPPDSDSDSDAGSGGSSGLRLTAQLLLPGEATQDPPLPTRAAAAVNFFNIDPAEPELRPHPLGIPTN"},
  "source": "patent US6316450A",
  "about": "“Compounds” (SmithKline Beecham p.l.c., priority 1997, dated 2001)",
  "note": "Some entries share one result that the patent states for a list of compounds.",
  "data": [
    {"target": "human cloned 5-HT6 receptors (Homo sapiens, UniProt P50406)", "type": "binding", "settings": "[3H]-LSD, HeLa-5HT6 cell membranes, pH 7.7, 37° C.", "values": [
      {"smiles": "COc1ccc(S(=O)(=O)Nc2ccccc2SC)cc1N1CCN(C)CC1.Cl", "note": "[Compound 37, 4-Methoxy-3-(4-methylpiperazin-1-yl)-N-(2-methylsulfanylphenyl)-benzenesulfonamide hydrochloride]", "pKi": "> 8.5"},
      {"smiles": "COc1ccc(S(=O)(=O)Nc2cccc3c2CCCC3)cc1N1CCN(C)CC1.Cl", "note": "[Compound 38, 4-Methoxy-3-(4-methylpiperazin-1-yl)-N-(5,6,7,8-tetrahydronaphthalene-1-yl)-benzenesulfonamide hydrochloride]", "pKi": "> 8.5"},
      {"smiles": "CCc1ccccc1NS(=O)(=O)c1ccc(OC)c(N2CCN(C)CC2)c1.Cl", "note": "[Compound 39, N-(2-Ethylphenyl)-4-methoxy-3-(4-methylpiperazin-1-yl)benzenesulfonamide hydrochloride]", "pKi": "> 8.5"},
      {"smiles": "COc1ccc(S(=O)(=O)Nc2cccc(C)c2)cc1N1CCN(C)CC1.Cl", "note": "[Compound 57, 4-Methoxy-N-(3-methylphenyl)-3-(4-methylpiperazin-1-yl)benzenesulfonamide hydrochloride]", "pKi": "> 8.5"},
      {"smiles": "CCc1cccc(NS(=O)(=O)c2ccc(OC)c(N3CCN(C)CC3)c2)c1.Cl", "note": "[Compound 58, N-(3-Ethylphenyl)-4-methoxy-3-(4-methylpiperazin-1-yl)benzenesulfonamide hydrochloride]", "pKi": "> 8.5"},
      {"smiles": "COc1ccc(S(=O)(=O)Nc2ccc(Br)c(Cl)c2)cc1N1CCN(C)CC1.Cl", "note": "[Compound 59, N-(3-Chloro-4-bromophenyl)-4-methoxy-3-(4-methylpiperazin-1-yl)-benzenesulfonamide hydrochloride]", "pKi": "> 8.5"},
      {"smiles": "COc1ccc(S(=O)(=O)Nc2ccccc2C(C)(C)C)cc1N1CCNCC1.Cl", "note": "[Compound 117, N-(2-tert-Butylphenyl)-4-methoxy-3-piperazin-1-ylbenzenesulfonamide hydrochloride]", "pKi": "> 8.5"},
      {"smiles": "CCCCc1ccccc1NS(=O)(=O)c1ccc(OC)c(N2CCNCC2)c1.Cl", "note": "[Compound 118, N-(2-Butylphenyl)-4-methoxy-3-piperazin-1-ylbenzenesulfonamide hydrochloride]", "pKi": "> 8.5"},
      {"smiles": "COc1ccc(S(=O)(=O)N2CCc3cc(SC)c(I)cc32)cc1N1CCNCC1.Cl", "note": "[Compound 121, 6-Iodo-1-(4-methoxy-3-piperazin-1-ylbenzenesulfonyl)-5-methylsulfanyl-2,3-dihydro-1H-indole hydrochloride]", "pKi": "> 8.5"},
      {"smiles": "COc1ccc(S(=O)(=O)N2CCc3cc(C)c(C(F)(F)F)cc32)cc1N1CCNCC1.Cl", "note": "[Compound 124, 1-(4-Methoxy-3-piperazin-1-ylbenzenesulfonyl)-5-methyl-6-trifluoromethyl-2,3-dihydro-1H-indole hydrochloride]", "pKi": "> 8.5"},
      {"smiles": "COc1ccc(S(=O)(=O)N2CCCc3c(Cl)cc(Cl)cc32)cc1N1CCNCC1.Cl", "note": "[Compound 128, 5,7-Dichloro-1-(4-methoxy-3-piperazin-1-ylbenzenesulfonyl)-1,2,3,4-tetrahydroquinoline hydrochloride]", "pKi": "> 8.5"},
      {"smiles": "COc1ccc(S(=O)(=O)Nc2cc(Br)cc3c2OCC3)cc1N1CCNCC1.Cl", "note": "[Compound 137, N-(5-Bromo-2,3-dihydro-benzofuran-7-yl)-4-methoxy-3-piperazin-1-ylbenzenesulfonamide hydrochloride]", "pKi": "> 8.5"}
    ]}
  ]
}
